Positions count from the first letter of the chain named. The list shows a part of the results, in another mix than the full data. Calls are pooled over several reports, among them a noisy single-well screen. Some of the results follow.
Legend:
Conditions in all cases: stereoisomer not certain
[1] = system: T1, OR2C1
T1 sequence (whole entry): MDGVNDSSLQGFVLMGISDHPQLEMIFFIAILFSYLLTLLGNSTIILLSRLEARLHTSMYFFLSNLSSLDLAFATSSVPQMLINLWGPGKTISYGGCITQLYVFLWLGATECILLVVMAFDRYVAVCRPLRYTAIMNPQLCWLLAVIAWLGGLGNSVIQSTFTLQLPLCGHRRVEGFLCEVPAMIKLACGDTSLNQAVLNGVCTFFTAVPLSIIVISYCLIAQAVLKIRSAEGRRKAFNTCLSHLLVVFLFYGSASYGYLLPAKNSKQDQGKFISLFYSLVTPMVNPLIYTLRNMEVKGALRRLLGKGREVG
Summary of the method: (§1)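 Transient luciferase assays in mammalian cell lines were common, though methods varied by source. The values come from published papers and their supplementary material, with extra details from the original authors when needed. Responsive refers to a measured signal the original authors judged statistically different from baseline, and non-responsive (inactive) to the remainder.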

Chains of the proteins cited; added tags and fusions are not shown. Chains listed by the source or under a name are the forms on record and can include a tag or linker.
OR2C1, as listed by the source: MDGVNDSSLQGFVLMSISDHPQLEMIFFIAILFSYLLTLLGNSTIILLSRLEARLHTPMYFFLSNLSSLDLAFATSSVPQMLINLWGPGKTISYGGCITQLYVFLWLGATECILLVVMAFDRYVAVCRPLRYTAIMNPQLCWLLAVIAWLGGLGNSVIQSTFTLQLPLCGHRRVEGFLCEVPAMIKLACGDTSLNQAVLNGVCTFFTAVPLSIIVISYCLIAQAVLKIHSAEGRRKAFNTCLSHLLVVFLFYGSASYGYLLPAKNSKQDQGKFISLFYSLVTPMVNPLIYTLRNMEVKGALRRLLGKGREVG

[2] = system: T2, OR2C1; remark: listed apart in the source
T2 sequence (whole entry): T1 sequence (whole entry) with G16S, S58P, R229H
Summary of the method: as §1

[3] = system: T3, OR2C1; remark: listed apart in the source
T3 sequence (whole entry): T1 sequence (whole entry) with G16S, S58P
Summary of the method: as §1

[4] = system: T4, OR2C3
T4 sequence (whole entry): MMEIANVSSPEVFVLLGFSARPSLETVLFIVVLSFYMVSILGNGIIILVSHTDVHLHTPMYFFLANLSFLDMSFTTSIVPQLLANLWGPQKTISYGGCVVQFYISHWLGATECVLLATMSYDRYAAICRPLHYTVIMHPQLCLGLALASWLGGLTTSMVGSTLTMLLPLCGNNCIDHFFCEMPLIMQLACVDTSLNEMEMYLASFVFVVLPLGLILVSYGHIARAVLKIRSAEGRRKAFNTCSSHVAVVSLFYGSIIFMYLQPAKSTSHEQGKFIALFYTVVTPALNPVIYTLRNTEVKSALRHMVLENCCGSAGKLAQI
Summary of the method: as §1

[5] = biological target: T5, OR2D2 (Homo sapiens) (UniProt Q9H210)
T5 sequence (whole entry): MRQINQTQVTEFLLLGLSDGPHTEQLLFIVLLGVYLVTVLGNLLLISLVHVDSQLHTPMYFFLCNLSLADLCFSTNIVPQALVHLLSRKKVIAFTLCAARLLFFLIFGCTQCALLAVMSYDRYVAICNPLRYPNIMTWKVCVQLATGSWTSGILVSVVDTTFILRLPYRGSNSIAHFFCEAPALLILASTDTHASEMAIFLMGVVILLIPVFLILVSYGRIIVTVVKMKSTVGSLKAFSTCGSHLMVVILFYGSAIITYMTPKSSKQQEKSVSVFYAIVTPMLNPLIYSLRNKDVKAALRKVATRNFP
Summary of the method: as §1

[6] = system: T6, OR2D3
T6 sequence (whole entry): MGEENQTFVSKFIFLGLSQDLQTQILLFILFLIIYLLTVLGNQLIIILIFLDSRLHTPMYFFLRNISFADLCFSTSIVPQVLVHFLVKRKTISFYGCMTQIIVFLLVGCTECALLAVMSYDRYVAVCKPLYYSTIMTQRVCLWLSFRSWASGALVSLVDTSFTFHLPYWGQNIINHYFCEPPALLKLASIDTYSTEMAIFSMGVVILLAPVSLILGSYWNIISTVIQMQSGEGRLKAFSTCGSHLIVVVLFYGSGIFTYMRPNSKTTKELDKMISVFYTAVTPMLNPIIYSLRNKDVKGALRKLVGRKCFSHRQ
Summary of the method: as §1

[7] = biological target: T7, OR2F1 (Homo sapiens) (UniProt Q13607)
T7 sequence (whole entry): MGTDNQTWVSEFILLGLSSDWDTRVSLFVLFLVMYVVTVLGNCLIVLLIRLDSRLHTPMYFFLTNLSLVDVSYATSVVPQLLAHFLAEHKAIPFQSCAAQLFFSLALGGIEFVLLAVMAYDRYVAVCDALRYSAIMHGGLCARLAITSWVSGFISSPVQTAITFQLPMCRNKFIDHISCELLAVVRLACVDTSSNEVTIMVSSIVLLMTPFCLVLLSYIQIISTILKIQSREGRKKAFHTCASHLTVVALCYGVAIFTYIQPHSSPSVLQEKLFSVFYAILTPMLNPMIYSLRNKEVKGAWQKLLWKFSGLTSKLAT
Summary of the method: as §1

[8] = system: T8, OR2F2
T8 sequence (whole entry): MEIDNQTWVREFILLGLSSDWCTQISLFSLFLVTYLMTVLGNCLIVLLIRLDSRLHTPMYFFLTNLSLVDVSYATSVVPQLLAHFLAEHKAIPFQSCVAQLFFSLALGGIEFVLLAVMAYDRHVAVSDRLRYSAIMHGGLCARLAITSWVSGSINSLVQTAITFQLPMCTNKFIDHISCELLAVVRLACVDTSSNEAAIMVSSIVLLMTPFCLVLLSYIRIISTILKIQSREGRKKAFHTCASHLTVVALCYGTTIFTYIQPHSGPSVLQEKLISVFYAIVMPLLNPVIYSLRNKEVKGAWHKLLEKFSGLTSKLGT
Summary of the method: as §1

[9] = system: T9, OR2G2
T9 sequence (whole entry): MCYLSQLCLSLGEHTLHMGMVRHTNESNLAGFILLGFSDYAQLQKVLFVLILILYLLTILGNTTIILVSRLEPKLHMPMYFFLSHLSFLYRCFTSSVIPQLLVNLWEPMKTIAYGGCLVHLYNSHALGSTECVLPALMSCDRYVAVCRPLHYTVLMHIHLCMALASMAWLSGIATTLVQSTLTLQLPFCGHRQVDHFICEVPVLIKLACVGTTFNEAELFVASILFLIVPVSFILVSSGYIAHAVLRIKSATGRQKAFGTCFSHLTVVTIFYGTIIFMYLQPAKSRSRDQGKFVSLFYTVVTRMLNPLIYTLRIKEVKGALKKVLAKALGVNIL
Summary of the method: as §1

[10] = system: T10, OR2G2; remark: listed apart in the source
T10 sequence (whole entry): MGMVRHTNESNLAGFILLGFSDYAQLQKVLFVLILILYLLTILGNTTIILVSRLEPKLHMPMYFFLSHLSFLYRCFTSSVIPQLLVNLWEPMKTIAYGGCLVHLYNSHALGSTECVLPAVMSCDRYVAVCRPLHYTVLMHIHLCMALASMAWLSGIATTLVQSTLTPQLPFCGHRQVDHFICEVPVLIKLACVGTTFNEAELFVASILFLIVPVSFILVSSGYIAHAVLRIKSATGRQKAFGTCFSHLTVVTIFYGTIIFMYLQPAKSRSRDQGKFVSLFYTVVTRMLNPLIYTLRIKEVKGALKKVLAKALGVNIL
Summary of the method: as §1

Measured: odorant receptor agonist call;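 further: active if original authors judged signal statistically different from baseline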

CCCCOC(C)=O
inactive: [1] | [2] | [3] | [5] | [6] | [7] | [8] | [9] | [10]
active: [4]

CCC(C)=O
inactive: [1] | [2] | [3] | [4] | [5] | [6] | [7] | [8] | [9] | [10]

CS
inactive: [1] | [2] | [3] | [4] | [5] | [6] | [7] | [8] | [9] | [10]

From the M2OR odorant receptor database
